Assay results taken from patent publication US20020165237A1, “Treatment of the insulin resistance syndrome” (priority 2000, published 2002).
Where a name gives a salt, the structure may show the parent alone. For at least one compound, name, drawing or mass did not settle the structure.

System: Adult subjects with Diabetes Mellitus
Assay: Clinical Trial Data 2: chronic sildenafil citrate, glycosylated haemoglobin (HbA1c)
Type: in vivo, human
Conditions: subjects with type 2 diabetes mellitus, chronic treatment, prior to treatment vs end of study, irrespective of background therapy

SMILES: CCCc1nn(C)c2c(=O)[nH]c(-c3cc(S(=O)(=O)N4CCN(C)CC4)ccc3OCC)nc12 [sildenafil citrate]
- Glucose control (glycosylated haemoglobin, HbA1c): significant improvement in glucose control
